This passage reports binding results from publication PMC12579238.

No constants are given. Whether binding was seen depends on the method and setting. Binding seen in cells or lysates may run through a third protein. Here binding means that the protein was enriched with, or labelled near, the bait; the list need not be complete.

For the experiment, the target named is T1, CLN7 (human (endogenous in SH-SY5Y)) (UniProt Q8NHS3).
T1 sequence: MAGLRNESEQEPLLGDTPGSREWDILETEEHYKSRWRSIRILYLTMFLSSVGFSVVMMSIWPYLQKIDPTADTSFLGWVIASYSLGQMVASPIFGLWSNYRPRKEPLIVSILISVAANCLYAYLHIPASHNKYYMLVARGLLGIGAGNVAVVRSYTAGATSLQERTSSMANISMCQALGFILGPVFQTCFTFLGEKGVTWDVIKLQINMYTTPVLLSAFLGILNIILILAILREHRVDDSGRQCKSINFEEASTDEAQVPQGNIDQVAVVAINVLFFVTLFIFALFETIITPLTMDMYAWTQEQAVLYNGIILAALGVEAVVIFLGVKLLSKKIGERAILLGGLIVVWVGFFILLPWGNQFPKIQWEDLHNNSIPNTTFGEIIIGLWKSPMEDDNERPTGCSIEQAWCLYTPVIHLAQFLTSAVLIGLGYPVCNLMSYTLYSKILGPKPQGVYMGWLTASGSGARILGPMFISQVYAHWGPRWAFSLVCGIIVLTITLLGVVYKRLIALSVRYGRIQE
As to the kind of experiment: affinity purification with mass spectrometry; endogenous CLN7 immunoprecipitated from 2.5 mg SH-SY5Y lysate with a polyclonal anti-CLN7 antibody raised against L9 (351-421aa, Proteintech) on G-sepharose beads; IgG as non-specific binding control; 4 independent replicates; cells under steady state culture conditions.

B1: KIF7 (protein, UniProt Q2M1P5 1-1343)
chain: MGLEAQRLPGAEEAPVRVALRVRPLLPKELLHGHQSCLQVEPGLGRVTLGRDRHFGFHVVLAEDAGQEAVYQACVQPLLEAFFEGFNATVFAYGQTGSGKTYTMGEASVASLLEDEQGIVPRAMAEAFKLIDENDLLDCLVHVSYLEVYKEEFRDLLEVGTASRDIQLREDERGNVVLCGVKEVDVEGLDEVLSLLEMGNAARHTGATHLNHLSSRSHTVFTVTLEQRGRAPSRLPRPAPGQLLVSKFHFVDLAGSERVLKTGSTGERLKESIQINSSLLALGNVISALGDPQRRGSHIPYRDSKITRILKDSLGGNAKTVMIACVSPSSSDFDETLNTLNYASRAQNIRNRATVNWRPEAERPPEETASGARGPPRHRSETRIIHRGRRAPGPATASAAAAMRLGAECARYRACTDAAYSLLRELQAEPGLPGAAARKVRDWLCAVEGERSALSSASGPDSGIESASVEDQAAQGAGGRKEDEGAQQLLTLQNQVARLEEENRDFLAALEDAMEQYKLQSDRLREQQEEMVELRLRLELVRPGWGGPRLLNGLPPGSFVPRPHTAPLGGAHAHVLGMVPPACLPGDEVGSEQRGEQVTNGREAGAELLTEVNRLGSGSSAASEEEEEEEEPPRRTLHLRRNRISNCSQRAGARPGSLPERKGPELCLEELDAAIPGSRAVGGSKARVQARQVPPATASEWRLAQAQQKIRELAINIRMKEELIGELVRTGKAAQALNRQHSQRIRELEQEAEQVRAELSEGQRQLRELEGKELQDAGERSRLQEFRRRVAAAQSQVQVLKEKKQATERLVSLSAQSEKRLQELERNVQLMRQQQGQLQRRLREETEQKRRLEAEMSKRQHRVKELELKHEQQQKILKIKTEEIAAFQRKRRSGSNGSVVSLEQQQKIEEQKKWLDQEMEKVLQQRRALEELGEELHKREAILAKKEALMQEKTGLESKRLRSSQALNEDIVRVSSRLEHLEKELSEKSGQLRQGSAQSQQQIRGEIDSLRQEKDSLLKQRLEIDGKLRQGSLLSPEEERTLFQLDEAIEALDAAIEYKNEAITCRQRVLRASASLLSQCEMNLMAKLSYLSSSETRALLCKYFDKVVTLREEQHQQQIAFSELEMQLEEQQRLVYWLEVALERQRLEMDRQLTLQQKEHEQNMQLLLQQSRDHLGEGLADSRRQYEARIQALEKELGRYMWINQELKQKLGGVNAVGHSRGGEKRSLCSEGRQAPGNEDELHLAPELLWLSPLTEGAPRTREETRDLVHAPLPLTWKRSSLCGEEQGSPEELRQREAAEPLVGRVLPVGEAGLPWNFGPLSKPRRELRRASPGMIDVRKNPL
Regarding B1, the binding result was “binds”.

B2: LZTS2 (protein, UniProt Q9BRK4 1-669)
chain: MAIVQTLPVPLEPAPEAATAPQAPVMGSVSSLISGRPCPGGPAPPRHHGPPGPTFFRQQDGLLRGGYEAQEPLCPAVPPRKAVPVTSFTYINEDFRTESPPSPSSDVEDAREQRAHNAHLRGPPPKLIPVSGKLEKNMEKILIRPTAFKPVLPKPRGAPSLPSFMGPRATGLSGSQGSLTQLFGGPASSSSSSSSSSAADKPLAFSGWASGCPSGTLSDSGRNSLSSLPTYSTGGAEPTTSSPGGHLPSHGSGRGALPGPARGVPTGPSHSDSGRSSSSKSTGSLGGRVAGGLLGSGTRASPDSSSCGERSPPPPPPPPSDEALLHCVLEGKLRDREAELQQLRDSLDENEATMCQAYEERQRHWQREREALREDCAAQAQRAQRAQQLLQLQVFQLQQEKRQLQDDFAQLLQEREQLERRCATLEREQRELGPRLEETKWEVCQKSGEISLLKQQLKESQAELVQKGSELVALRVALREARATLRVSEGRARGLQEAARARELELEACSQELQRHRQEAEQLREKAGQLDAEAAGLREPPVPPATADPFLLAESDEAKVQRAAAGVGGSLRAQVERLRVELQRERRRGEEQRDSFEGERLAWQAEKEQVIRYQKQLQHNYIQMYRRNRQLEQELQQLSLELEARELADLGLAEQAPCICLEEITATEI
B2: the binding result is listed as “binds”.

B3: LRCH2 (protein, UniProt Q5VUJ6 1-765)
chain: MAASQGGGGNSGGGGCGGGGSSGGCGTAGGGGGGAGGGGGGGGGTLVVPIPVPTLFGQPFPNGPPWNPGSLQPQHTVRSLDRALEEAGSSGILSLSGRKLRDFPGSGYDLTDTTQADLSRNRFTEIPSDVWLFAPLETLNLYHNCIKTIPEAIKNLQMLTYLNISRNLLSTLPKYLFDLPLKVLVVSNNKLVSIPEEIGKLKDLMELDISCNEIQVLPQQMGKLHSLRELNIRRNNLHVLPDELGDLPLVKLDFSCNKVTEIPVCYRKLHHLQVIILDNNPLQVPPAQICLKGKVHIFKYLNIQACCRMDKKPDSLDLPSLSKRMPSQPLTDSMEDFYPNKNHGPDSGIGSDNGEKRLSTTEPSDDDTVSLHSQVSESNREQTSRNDSHIIGSKTDSQKDQEVYDFVDPNTEDVAVPEQGNAHIGSFVSFFKGKEKCSEKSRKNEELGDEKRLEKEQLLAEEEDDDLKEVTDLRKIAAQLLQQEQKNRILNHSTSVMRNKPKQTVECEKSVSADEVNSPLSPLTWQPLENQKDQIDEQPWPESHPIIWQSEERRRSKQIRKEYFKYKSMRKSSSGNENDEQDSDNANMSTQSPVSSEEYDRTDGFSHSPFGLKPRSAFSRSSRQEYGAADPGFTMRRKMEHLREEREQIRQLRNNLESRLKVILPDDIGAALMDGVVLCHLANHIRPRSVASIHVPSPAVPKLSMAKCRRNVENFLDACKKLGVSQERLCLPHHILEERGLVKVGVTVQALLELPTTKASQLSVA
Take B3: the binding result is recorded as “binds”.

B4: LRCH3 (protein, UniProt Q96II8 1-777)
chain: MAAAGLVAVAAAAEYSGTVASGGNLPGVHCGPSSGAGPGFGPGSWSRSLDRALEEAAVTGVLSLSGRKLREFPRGAANHDLTDTTRADLSRNRLSEIPIEACHFVSLENLNLYQNCIRYIPEAILNLQALTFLNISRNQLSTLPVHLCNLPLKVLIASNNKLVSLPEEIGHLRHLMELDVSCNEIQTIPSQIGNLEALRDLNVRRNHLVHLPEELAELPLIRLDFSCNKITTIPVCYRNLRHLQTITLDNNPLQSPPAQICIKGKVHIFKYLNIQACKIAPDLPDYDRRPLGFGSCHEELYSSRPYGALDSGFNSVDSGDKRWSGNEPTDEFSDLPLRVAEITKEQRLRRESQYQENRGSLVVTNGGVEHDLDQIDYIDSCTAEEEEAEVRQPKGPDPDSLSSQFMAYIEQRRISHEGSPVKPVAIREFQKTEDMRRYLHQNRVPAEPSSLLSLSASHNQLSHTDLELHQRREQLVERTRREAQLAALQYEEEKIRTKQIQRDAVLDFVKQKASQSPQKQHPLLDGVDGECPFPSRRSQHTDDSALCMSLSGLNQVGCAATLPHSSAFTPLKSDDRPNALLSSPATETVHHSPAYSFPAAIQRNQPQRPESFLFRAGVRAETNKGHASPLPPSAAPTTDSTDSITGQNSRQREEELELIDQLRKHIEYRLKVSLPCDLGAALTDGVVLCHLANHVRPRSVPSIHVPSPAVPKLTMAKCRRNVENFLEACRKIGVPQEQLCLPLHILEEKGLSQVAVTVQALLELAPPKQQQHQLSAV
Turning to B4, the binding entry was “binds”.

B5: MCM6 (protein, UniProt Q14566 1-821)
chain: MDLAAAAEPGAGSQHLEVRDEVAEKCQKLFLDFLEEFQSSDGEIKYLQLAEELIRPERNTLVVSFVDLEQFNQQLSTTIQEEFYRVYPYLCRALKTFVKDRKEIPLAKDFYVAFQDLPTRHKIRELTSSRIGLLTRISGQVVRTHPVHPELVSGTFLCLDCQTVIRDVEQQFKYTQPNICRNPVCANRRRFLLDTNKSRFVDFQKVRIQETQAELPRGSIPRSLEVILRAEAVESAQAGDKCDFTGTLIVVPDVSKLSTPGARAETNSRVSGVDGYETEGIRGLRALGVRDLSYRLVFLACCVAPTNPRFGGKELRDEEQTAESIKNQMTVKEWEKVFEMSQDKNLYHNLCTSLFPTIHGNDEVKRGVLLMLFGGVPKTTGEGTSLRGDINVCIVGDPSTAKSQFLKHVEEFSPRAVYTSGKASSAAGLTAAVVRDEESHEFVIEAGALMLADNGVCCIDEFDKMDVRDQVAIHEAMEQQTISITKAGVKATLNARTSILAAANPISGHYDRSKSLKQNINLSAPIMSRFDLFFILVDECNEVTDYAIARRIVDLHSRIEESIDRVYSLDDIRRYLLFARQFKPKISKESEDFIVEQYKHLRQRDGSGVTKSSWRITVRQLESMIRLSEAMARMHCCDEVQPKHVKEAFRLLNKSIIRVETPDVNLDQEEEIQMEVDEGAGGINGHADSPAPVNGINGYNEDINQESAPKASLRLGFSEYCRISNLIVLHLRKVEEEEDESALKRSELVNWYLKEIESEIDSEEELINKKRIIEKVIHRLTHYDHVLIELTQAGLKGSTEGSESYEEDPYLVVNPNYLLED
B5: the binding result is reported as “binds”.
